The structures appear in SMILES notation.

A word on the IC50: it is the concentration that gives 50% inhibition. A higher IC50 goes with weaker potency.

The target in the experiment is GABA-A receptor; anion channel. The experiment in a line: Inhibition of binding of tert-butyl bicyclophosphorothionate ([35 S]TBPS) at Gamma-aminobutyric acid A receptor from rat whole brain membranes. Type of experiment: cell membranes, Membrane.

Regarding `CC(=O)[C@H]1CC[C@H]2[C@@H]3CC[C@H]4C[C@H](O)CC[C@]4(C)[C@H]3C(=O)C[C@]12C` [ALFAXALONE], the IC50 came out at 423 nM.

The values are drawn from ChEMBL document CHEMBL1133501, “Conformationally constrained anesthetic steroids that modulate GABA(A) receptors” (J Med Chem, 2000).
